Measured values as given in PMC9075623.
Results are given in words; binding and its absence hold for the method and conditions named. Binding seen in cells or lysates may run through a third protein.

Amino acid sequences for entries named in this document (tags omitted).
UniProt P21796: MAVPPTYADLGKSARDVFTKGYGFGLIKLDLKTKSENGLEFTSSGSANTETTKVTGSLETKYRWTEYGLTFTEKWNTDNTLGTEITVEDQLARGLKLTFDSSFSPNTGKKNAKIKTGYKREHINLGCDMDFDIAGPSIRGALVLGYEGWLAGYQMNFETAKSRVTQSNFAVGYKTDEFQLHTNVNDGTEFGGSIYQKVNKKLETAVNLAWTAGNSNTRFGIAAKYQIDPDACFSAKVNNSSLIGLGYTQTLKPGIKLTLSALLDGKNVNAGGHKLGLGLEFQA
UniProt P04406: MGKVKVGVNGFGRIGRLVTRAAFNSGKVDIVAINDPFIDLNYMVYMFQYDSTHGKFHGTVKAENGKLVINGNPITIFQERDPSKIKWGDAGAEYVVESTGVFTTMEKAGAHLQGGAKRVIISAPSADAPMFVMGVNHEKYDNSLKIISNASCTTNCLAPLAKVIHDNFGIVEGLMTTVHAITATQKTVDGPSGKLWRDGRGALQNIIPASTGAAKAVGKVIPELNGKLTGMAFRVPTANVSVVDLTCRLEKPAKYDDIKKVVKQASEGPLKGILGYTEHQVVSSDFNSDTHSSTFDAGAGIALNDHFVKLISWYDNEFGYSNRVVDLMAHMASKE

Biological target: voltage-dependent anion-selective channel protein 1 (VDAC1) (human (endogenous in U87MG)) (UniProt P21796)
Assay: co-IP; U87MG cells overexpressing V5-tagged TSPO^WT or TSPO^A147T; IP with antibody against the endogenous partner (VDAC1, Hsp90AA1), immunoblot for V5; V5-tagged pcDNA as negative control

binding: no binding
Substance: GAPDH (from UniProt P04406 1-335)
